Some entries share one result that the patent states for a list of compounds. At least one structure is not confirmed: it was looked up by name or label, or the drawing left a doubt.
Assays:
SETVI = test: greenhouse test, post-emergence treatment; assay type: in vivo, Setaria viridis; conditions: scale 0 to 100
ECHCG = test: greenhouse test, pre-emergence treatment; assay type: in vivo, Echinochloa crus-galli; conditions: scale 0 to 100
APESV = test: greenhouse test, pre-emergence treatment; assay type: in vivo, Apera spica-venti; conditions: scale 0 to 100
Procedure: (§1) The culture containers used were plastic flowerpots containing loamy sand with approximately 5.8% of humus as the substrate. The seeds of the test plants were sown separately for each species.
(§2) The containers were irrigated gently to promote germination and growth and subsequently covered with transparent plastic hoods until the plants had rooted.
(§3) Depending on the species, the plants were kept at 10-25° C. or 20-35° C. The test period extended over 1 to 4 weeks. During this time, the plants were tended, and their response to the individual treatments was evaluated.
(§4) Evaluation was carried out using a scale from 0 to 100. 100 means no emergence of the plants, or complete destruction of at least the aerial moieties, and 0 means no damage, or normal course of growth. A good herbicidal activity is given at values of at least 70 and a very good herbicidal activity is given at values of at least 85.

ALOMY = test: greenhouse test, pre-emergence treatment; assay type: in vivo; conditions: scale 0 to 100
SETFA = test: greenhouse test, pre-emergence treatment; assay type: in vivo, Setaria faberi; conditions: scale 0 to 100
Procedure: as §1, §2, §3, §4

SETIT = test: greenhouse test, pre-emergence treatment; assay type: in vivo, Setaria italica; conditions: scale 0 to 100
AMARE = test: greenhouse test, pre-emergence treatment; assay type: in vivo, Amaranthus retroflexus; conditions: 1.0 kg/ha, scale 0 to 100

Compound: Cc1nn(C)c(Cl)c1C=C1C(=O)N(C)C(C)(Cc2ccccc2)C(=O)N1C (racemic) [I-15]
- herbicidal activity (SETVI; 1.0 kg/ha): very good (a very good herbicidal activity is given at values of at least 85)
- herbicidal activity (ECHCG; 1.0 kg/ha): very good (a very good herbicidal activity is given at values of at least 85)
- herbicidal activity (APESV; 1.0 kg/ha): very good (a very good herbicidal activity is given at values of at least 85)

Compound: CN1C(=O)C(C)(Cc2ccccc2)N(C)C(=O)C1=Cc1c(Cl)nc2sccn12 (racemic) [I-16]
- herbicidal activity (SETVI; 1.0 kg/ha): very good (a very good herbicidal activity is given at values of at least 85)

Compound: CN1C(=O)C(=Cc2cn(C)c3cccc([N+](=O)[O-])c23)NC(=O)C1(C)Cc1ccccc1 (racemic) [I-18]
- herbicidal activity (ECHCG; 1.0 kg/ha): very good (a very good herbicidal activity is given at values of at least 85)
- herbicidal activity (ALOMY; 1.0 kg/ha): very good (a very good herbicidal activity is given at values of at least 85)

Compound: CN1C(=O)C(C)(Cc2ccccc2)NC(=O)C1=Cc1cn(C)c2cccc([N+](=O)[O-])c12 (racemic) [I-19]
- herbicidal activity (APESV; 1.0 kg/ha): very good (a very good herbicidal activity is given at values of at least 85)

Compound: CN1C(=O)C(C)(Cc2ccccc2)N(C)C(=O)C1=Cc1cn(C)nc1C(F)F (racemic) [I-25]
- herbicidal activity (SETFA; 0.5 kg/ha): very good (a very good herbicidal activity is given at values of at least 85)
- herbicidal activity (ECHCG; 0.5 kg/ha): very good (a very good herbicidal activity is given at values of at least 85)
- herbicidal activity (APESV; 0.5 kg/ha): very good (a very good herbicidal activity is given at values of at least 85)

Compound: CC(C)n1cc(C=C2C(=O)N(C)C(C)(Cc3ccccc3)C(=O)N2C)c(C(F)(F)F)n1 (racemic) [I-26]
- herbicidal activity (SETVI; 0.5 kg/ha): very good (a very good herbicidal activity is given at values of at least 85)
- herbicidal activity (SETFA; 0.5 kg/ha): very good (a very good herbicidal activity is given at values of at least 85)
- herbicidal activity (ECHCG; 0.5 kg/ha): very good (a very good herbicidal activity is given at values of at least 85)
- herbicidal activity (ECHCG; 1.0 kg/ha): very good (a very good herbicidal activity is given at values of at least 85)
- herbicidal activity (ALOMY; 0.5 kg/ha): very good (a very good herbicidal activity is given at values of at least 85)
- herbicidal activity (APESV; 0.5 kg/ha): very good (a very good herbicidal activity is given at values of at least 85)
- herbicidal activity (SETIT; 1.0 kg/ha): very good (a very good herbicidal activity is given at values of at least 85)

Compound: CN1C(=O)C(C)(Cc2ccccc2)N(C)C(=O)C1=Cc1cc(Cl)sc1Cl (racemic) [I-56]
- herbicidal activity (ECHCG; 0.5 kg/ha): good (A good herbicidal activity is given at values of at least 70)
- herbicidal activity (ALOMY; 0.5 kg/ha): good (A good herbicidal activity is given at values of at least 70)
- herbicidal activity (APESV; 0.5 kg/ha): very good (a very good herbicidal activity is given at values of at least 85)
- herbicidal activity (SETIT; 0.5 kg/ha): very good (a very good herbicidal activity is given at values of at least 85)

Compound: CN1C(=O)C(C)(Cc2ccccc2)N(C)C(=O)C1=Cc1c(C(F)(F)F)nn(C)c1F (racemic) [I-60]
- herbicidal activity (SETFA; 1.0 kg/ha): very good (a very good herbicidal activity is given at values of at least 85)
- herbicidal activity (ECHCG; 1.0 kg/ha): very good (a very good herbicidal activity is given at values of at least 85)
- herbicidal activity (APESV; 1.0 kg/ha): very good (a very good herbicidal activity is given at values of at least 85)

Compound: CN1C(=O)C(C)(Cc2ccccc2)N(C)C(=O)C1=Cc1cnn2cccnc12 (racemic) [I-61]
- herbicidal activity (SETFA; 1.0 kg/ha): very good (a very good herbicidal activity is given at values of at least 85)

Compound: CN1C(=O)C(C)(Cc2ccccc2)N(C)C(=O)C1=Cc1cn(C)nc1[N+](=O)[O-] (racemic) [I-81]
- herbicidal activity (SETFA; 1.0 kg/ha): very good (a very good herbicidal activity is given at values of at least 85)
- herbicidal activity (AMARE): very good (a very good herbicidal activity is given at values of at least 85)
- herbicidal activity (ECHCG; 1.0 kg/ha): very good (a very good herbicidal activity is given at values of at least 85)
- herbicidal activity (ALOMY; 1.0 kg/ha): very good (a very good herbicidal activity is given at values of at least 85)
- herbicidal activity (APESV; 1.0 kg/ha): very good (a very good herbicidal activity is given at values of at least 85)

Compound: CN1C(=O)C(C)(Cc2ccccc2)N(C)C(=O)/C1=C/c1cnn(C(C)(C)C)c1C(F)(F)F (stereo not shown) [I-21, 4-[5-benzyl-1,4,5-trimethyl-3,6-dioxopiperazin-(2Z)-ylidenemethyl]-1-tert-butyl-5-trifluoromethylpyrazole]
- herbicidal activity (AMARE): good (A good herbicidal activity is given at values of at least 70)

Compound: CN1C(=O)C(C)(Cc2ccccc2)N(C)C(=O)C1Cc1cscc1C(F)(F)F (stereo not shown) [II-21]
- herbicidal activity (SETFA; 1.0 kg/ha): very good (a very good herbicidal activity is given at values of at least 85)
- herbicidal activity (ECHCG; 1.0 kg/ha): very good (a very good herbicidal activity is given at values of at least 85)
- herbicidal activity (APESV; 1.0 kg/ha): very good (a very good herbicidal activity is given at values of at least 85)
